In paper PMC7819943, “Rice protein-binding microarrays: a tool to detect cis-acting elements near promoter regions in rice”:
This is one part of the list.

Protein sequences, listed by entry. Tags and fused reporters are not part of them.
UniProt Q0JBA9, entry or part of it: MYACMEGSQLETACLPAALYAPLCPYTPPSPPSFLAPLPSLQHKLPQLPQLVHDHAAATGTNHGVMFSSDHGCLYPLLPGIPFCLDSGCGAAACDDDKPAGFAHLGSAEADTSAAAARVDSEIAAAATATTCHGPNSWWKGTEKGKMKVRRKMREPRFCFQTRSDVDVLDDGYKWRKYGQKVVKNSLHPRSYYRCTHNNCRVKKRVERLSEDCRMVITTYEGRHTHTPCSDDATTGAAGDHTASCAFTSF

Target: OsWRKY34 (Oryza sativa, UniProt Q0JBA9 1-250)
Test: protein-binding microarray (RPBM); PBS, 2% BSA, 51.3 ng/ul salmon testes DNA, 50 uM zinc acetate, 200 nM TF, 25 C, 1 h; high values mean tight binding
Details: protein: recombinant; tags: N-terminal polyhistidine and DsRed monomer fusion (pET32a); label: CyDye5-dUTP incorporated in the synthesized complementary strand; 3' TTTTT single-stranded linker to array surface; dsDNA, one strand shown
Outline: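 Ni–NTA purification followed expression in E. coli BL21-CodonPlus of transcription factors fused N-terminally to a polyhistidine tag and DsRed. At 200 nM in PBS with 2% BSA, salmon testes DNA and 50 µM zinc acetate, the protein was incubated for 1 h at 25 °C with a custom Agilent array that had been primer-extended with Cy5-dUTP and blocked with 2% BSA. After washing, the array was read on an Axon 4000B scanner. The binding signal is per-feature fluorescence intensity in arbitrary units.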

Sequence | binding signal
GAATTTTGGTAGGATGGGGATGGGGAATTGAGGAAGGAACCGGAGTCACCTAGTGCAG | 10300 fluorescence intensity (a.u.)
CTATGGCCTTTTTAGTTGTAATTATATTATCGTTTATTATCGGAGTCACCTAGTGCAG | 9120 fluorescence intensity (a.u.)
ACTACCTCGCCATTGCCACCACCAGCAGCAGCTCGCCATCCGGAGTCACCTAGTGCAG | 10500 fluorescence intensity (a.u.)
GCCAGGCAGGGGAGGGTCGTTAAGTAGCATCCCATGTCACCGGAGTCACCTAGTGCAG | 8220 fluorescence intensity (a.u.)
GAGGTGAGACGGTGGTCTCCCGGATTCGGTGGGTGGTGGGCGGAGTCACCTAGTGCAG | 8220 fluorescence intensity (a.u.)
TAGCGCTGTAGTCAGTATTTTTTCAGTGTTGTATCTCACTCGGAGTCACCTAGTGCAG | 10500 fluorescence intensity (a.u.)
CATCGTCACGGTTGGTGTTCGGTCTCCGCTCGATCGACTCCGGAGTCACCTAGTGCAG | 11400 fluorescence intensity (a.u.)
TTGTCAGTGCCTTAGGCTAGCTTCAGCCTTGTCCATCACTCGGAGTCACCTAGTGCAG | 8740 fluorescence intensity (a.u.)
AGACCAAGCCATATCACCTTATGTAATTTCTTTATGTGCTCGGAGTCACCTAGTGCAG | 9010 fluorescence intensity (a.u.)
GCAACCGGCTTTCTTTCCTTTCTTTCTTTAATTTCTTTCCCGGAGTCACCTAGTGCAG | 8230 fluorescence intensity (a.u.)
TTGTTCTTTTTGGTCTGGTTTTTTTGTGGTTTCTTGATTGCGGAGTCACCTAGTGCAG | 9010 fluorescence intensity (a.u.)
GCCACTTTTGCAGTCTATTGGGCCTAGTCTGTGATTATAACGGAGTCACCTAGTGCAG | 8130 fluorescence intensity (a.u.)
TGTCTTAGTTCTCTTTTGTTTTTTGGCTGTGCATCCCTGACGGAGTCACCTAGTGCAG | 10800 fluorescence intensity (a.u.)
ATGTTGCTTCATTTTCCAGTATTTGTTATTTTATTATTGACGGAGTCACCTAGTGCAG | 11100 fluorescence intensity (a.u.)
GTCTACTATTGTACCTGCTCTTAGTTCATGAGTGAATAAACGGAGTCACCTAGTGCAG | 10300 fluorescence intensity (a.u.)
GGTGGGTAGTTTTCTGCGTTTTCTTTTGTATTTTTGGTTGCGGAGTCACCTAGTGCAG | 11500 fluorescence intensity (a.u.)
GGGGATCACACCTGTTACCACTCGCGGTCTTTTAAACATTCGGAGTCACCTAGTGCAG | 12100 fluorescence intensity (a.u.)
GGGTTGGGAAAGATGGGATAAGACCACAGCCTATATGTTCCGGAGTCACCTAGTGCAG | 9200 fluorescence intensity (a.u.)
TTCCCAATCCCAATTCCATTCATTCTCCCTCATCCATTTACGGAGTCACCTAGTGCAG | 10100 fluorescence intensity (a.u.)
TCGTAACCCCTCTTTCTCGTTTTCCGCGCGCACTCTTTTCCGGAGTCACCTAGTGCAG | 11200 fluorescence intensity (a.u.)
GTGCTCTACTTCTACTCGTCTCACGGCTAATCACCTGGTACGGAGTCACCTAGTGCAG | 8920 fluorescence intensity (a.u.)
ATTCCACAAAGCTAGCGCCGCGGCCTCATCATTCCAGGCGCGGAGTCACCTAGTGCAG | 8070 fluorescence intensity (a.u.)
ATATCACTTATTTAAGTTTTAAAAAGTTCCATATTTTTCTCGGAGTCACCTAGTGCAG | 8820 fluorescence intensity (a.u.)
GGCTCGTGTAGGGTGGTGCGCCCCGGTGTTTCGGGAGGTTCGGAGTCACCTAGTGCAG | 8800 fluorescence intensity (a.u.)
TCGACGTCGTGTTTCATGATCTCAAGGTTAGCTGCACATCCGGAGTCACCTAGTGCAG | 8360 fluorescence intensity (a.u.)
AGAAAAAGGTGAGTTGGTGGTGTCATATATAGTGTGTGGTCGGAGTCACCTAGTGCAG | 8470 fluorescence intensity (a.u.)
GTGTTCAGTTATTTCAGTTCAGTGATCTAGTTTCATCTCACGGAGTCACCTAGTGCAG | 8070 fluorescence intensity (a.u.)

Sequence | binding signal
TGTTGCTTGCTAGCTTTAATCTATCGCAATGGATTAGGTTCGGAGTCACCTAGTGCAG | 13000 fluorescence intensity (a.u.)
CAGGACTGCGTGCTCCTTCTCGTTGTTCCTTACTCACCTTCGGAGTCACCTAGTGCAG | 9560 fluorescence intensity (a.u.)
CATATTATAAGTCGTTTTGACTTTTTTTTCTTAGTCAATCCGGAGTCACCTAGTGCAG | 12100 fluorescence intensity (a.u.)
TTGGTGCCTGCTGTGTTCATATTTTTCTACCCCTTTCTCCCGGAGTCACCTAGTGCAG | 8610 fluorescence intensity (a.u.)
GGTTTGACCGGCGGGAGGACGCTTTGACCGAGGTGGGAGGCGGAGTCACCTAGTGCAG | 8840 fluorescence intensity (a.u.)
ATTGTAATGTCACCTTTGCAAATCCTTAACTGCTCGGATACGGAGTCACCTAGTGCAG | 9580 fluorescence intensity (a.u.)
ATACTTTACTCGTGACTTATATTTTTAATTTTTTTATTTTCGGAGTCACCTAGTGCAG | 9400 fluorescence intensity (a.u.)
TTATGCCTTATTATATGTTTATCCTTCTTAGACTAATGTTCGGAGTCACCTAGTGCAG | 9200 fluorescence intensity (a.u.)
GTACTACATGCCATTGCCATCTCAACTACGTATTAGTTAGCGGAGTCACCTAGTGCAG | 11500 fluorescence intensity (a.u.)
TCCATTATACTTCGAATCTTCAAGACTTGTACTTATACCTCGGAGTCACCTAGTGCAG | 8860 fluorescence intensity (a.u.)
GCCTTCTTTACGTGTATTTTTATTGGGAATAAGTTCACTTCGGAGTCACCTAGTGCAG | 8080 fluorescence intensity (a.u.)
GGCCACCGCGCGCCTCTCCCCATCGTCCGCCGTGACACGCCGGAGTCACCTAGTGCAG | 11300 fluorescence intensity (a.u.)
TCCTTTTTTCAGAACCGAACAATCCATTTTGTTCTGCAACCGGAGTCACCTAGTGCAG | 8460 fluorescence intensity (a.u.)
GAGAGGGAGAGAGAGAGAGGTGGGGTTTTGATGGAAGTACCGGAGTCACCTAGTGCAG | 8540 fluorescence intensity (a.u.)
AATTCCCGTAATACTTTAATTATCCCATGTTTATCGGATCCGGAGTCACCTAGTGCAG | 9070 fluorescence intensity (a.u.)
CCGTGTTATCTACTTCCTTCGTTCTATAATATAAGAGATTCGGAGTCACCTAGTGCAG | 10100 fluorescence intensity (a.u.)
TACCATATACAAGTGCATAGTCTGATCCATATATTTATGACGGAGTCACCTAGTGCAG | 9170 fluorescence intensity (a.u.)
TTAATAACTTTGGCCTCCTTTTTTTTTTTTTTTCATTCCTCGGAGTCACCTAGTGCAG | 10300 fluorescence intensity (a.u.)
AAGACGGCTAAACGCAACCACGAATTCAGGGGAGGGGAATCGGAGTCACCTAGTGCAG | 9490 fluorescence intensity (a.u.)
AGGCCACAAAAAGACTCTCTCCTGTACGACTATGCATTTCCGGAGTCACCTAGTGCAG | 9240 fluorescence intensity (a.u.)
GCATCCACGTGCACAGGGTATCATGTTTAATTCGTGACTTCGGAGTCACCTAGTGCAG | 8520 fluorescence intensity (a.u.)
CTGACAAGCGCCCATCTTCCTTGTCTCCGCTTCGTCTTCGCGGAGTCACCTAGTGCAG | 11000 fluorescence intensity (a.u.)
TCTAACGTAAGGTTTGTGCAAATTCCACCATCTATACGCCCGGAGTCACCTAGTGCAG | 8160 fluorescence intensity (a.u.)
ACCTCAGTCACCTCACGGCTTTCCTCTGACAGATGCCGTCCGGAGTCACCTAGTGCAG | 10800 fluorescence intensity (a.u.)
AGATATCCAATCAAGGCTTTCATCGCTAGTCATCTATATCCGGAGTCACCTAGTGCAG | 8880 fluorescence intensity (a.u.)
ACGCTCTCAACTATTTTATCCATACGCACTAGTTATCGATCGGAGTCACCTAGTGCAG | 9440 fluorescence intensity (a.u.)
ATCTGGGGCGGGGATGCGAATGAGGGGTCCTCGCCCGCGACGGAGTCACCTAGTGCAG | 10600 fluorescence intensity (a.u.)

A different layout for some results above.
Sequence	binding signal
GGTTTGACCGGCGGGAGGACGCTTTGACCGAGGTGGGAGGCGGAGTCACCTAGTGCAG	8840 fluorescence intensity (a.u.)
GAGAGGGAGAGAGAGAGAGGTGGGGTTTTGATGGAAGTACCGGAGTCACCTAGTGCAG	8540 fluorescence intensity (a.u.)
